From ChEMBL document CHEMBL3988442, “University of Dundee, Small-Polar-MMV Screening Library” (2021).

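Assay of Toxoplasma gondii numbers, read through their beta-galactosidase reporter with a colour substrate. Concentration: 10 µM. The record gives no direction; the compounds picked for IC50 retests had high values, so higher reads as fewer parasites. Size under these conditions: about 67,000 compounds, about 260 of them at 50% or above in at least one test.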

Each number is a percent effect as filed. The controls that fix the scale are not given in the record; negative values are as filed. This is an unselected part of the compounds tested.

* O=C(NCCCOCC1CCCO1)c1cccnc1N1CCOCC1 (configuration not stated) : 19.99%
* CN(C)[C@@H]1CCN(c2ncccn2)[C@H]1Cc1ccncc1.O=C(O)C(F)(F)F.O=C(O)C(F)(F)F : 15.8%
* Cc1cnn(CCNCc2ccc(S(C)(=O)=O)cc2)c1 : -0.918%
* Cc1cc(C(=O)N2CCCC2Cn2nc(C)cc2C)on1 (configuration not stated) : 5.686%
* CC(C)N1CCCn2nc(C(=O)NCCc3c[nH]cn3)cc2C1 : 10.23%
* N#Cc1ccc(CN2CCC(CCc3ccc(O)cc3)CC2)cc1 : 18.08%
* O=C(NCCc1noc(-c2ccccn2)n1)NCC1CCCC1 : -3.024%
* [H][C@@]12CCC(=O)N(CCc3c[nH]cn3)[C@]1([H])CCN(Cc1coc(C)n1)C2 : 3.378%
* Cc1ccc(NC2(C(=O)NC(C)c3ncn[nH]3)CCCC2)cc1 (configuration not stated) : 3.188%
* COCCN(Cc1ccco1)Cc1nc(-c2ccsc2)no1 : -0.5682%
* [H][C@@]12C[C@@H](OCc3ccccn3)CN1CCN(C(=O)c1ccnnc1)C2 : -46.18%
* Oc1ccc(C2Nc3ccccc3C3=NCCCN32)cc1 (configuration not stated) : 10.79%
* NC(=O)c1nc(CN2CCOC(C(F)(F)F)C2)no1 (configuration not stated) : 11.68%
* [H][C@@]12CCN(Cc3ccccn3)C[C@@]1([H])O[C@H](C)C2 : -13.82%
* CN(C(=O)CSc1ccccn1)C1CCCN(CCc2ccccc2)C1 (configuration not stated) : 1.565%
* Cn1cc(CNCCC(=O)NCc2ccccc2)c(-c2cccnc2)n1 : 10.98%
* O=S1(=O)c2ccccc2C(O)CN1CCO (configuration not stated) : 18.96%
* CN1CCC(O)(CNCc2ccc(F)c(C(F)(F)F)c2)CC1 : 0.7585%
* CCc1ccc2nc(NCCOCCO)cc(C)c2c1 : -6.694%
* O=S1(=O)CCC(c2nnc(-c3cnc4onc(C5CC5)c4c3)o2)C1 (configuration not stated) : 2.935%
* COCCN(C)CCN1CC2(CCN(C3CCCCC3)CC2)OC1=O : -10.14%
* O=C(O)C(F)(F)F.O=C1CCC2(CCCN(C(=O)Cc3cccnc3)C2)N1 (configuration not stated) : -21.92%
* Cc1cc(C(=O)Nc2ccc(N3CCCC3)cn2)ccc1-n1cncn1 : -9.487%
* COc1ccc(Cc2ncc3c(n2)CN(C(=O)C(C)(C)C)C3)cc1 : -1.21%
* CC(=O)N1N=C(c2ccco2)OC1C(=O)NCCc1ccc(F)cc1 (configuration not stated) : 22.72%
* O=C(O)c1ccc2c(c1)C1(CCCCC1)CN2C(=O)c1cccc(F)c1 : 6.873%
* Cc1cccc(-c2nnn3c2COC(CNC(=O)N2CCCC2)C3)c1 (configuration not stated) : 18.09%
* Cc1cccc(C(=O)N2CC(Cc3nccc4ccn(C)c34)C2)n1 : -8.964%
* CN(C)C(=O)Cn1cc(C(=O)NCCc2cccc(Cl)c2Cl)nn1 : 7.795%
* O=S1(=O)[C@@H](c2ccccc2)[C@H](CO)CN1C1CC1 : 1.831%
* CC(NC(=O)NCc1cccc(CN2CCCC2)c1)c1nccs1 (configuration not stated) : -10.3%
* CC(C)Cc1cc(C(=O)NCCN2CCCS2(=O)=O)[nH]n1 : -2.4%
* O=C(O)C(F)(F)F.O=C1CCCC2(CCN(C(=O)c3ccccn3)CC2)N1 : -8.818%
* COC(=O)CC(c1ccc(OC)c(O)c1)c1oc(C)cc(=O)c1O (configuration not stated) : -6.113%
* Cc1cc(C(=O)N2CCC(C)CC2)ccc1NS(C)(=O)=O : -13.06%
* CN(Cc1nnc(C2CC2)n1C)C1CCN(CCc2ccncc2)C1 (configuration not stated) : 4.849%
* CCN1C(=O)CCCC12CCCN(C(=O)c1ccncc1F)C2.O=C(O)C(F)(F)F (configuration not stated) : -8.203%
* Cc1noc(C)c1CN1CC2(CCN(Cc3c[nH]cn3)CC2)CC1=O : 8.336%
* COCC(=O)N1CCC(C)(c2cc(O)[nH]n2)CC1 : -2.254%
* N#Cc1ccc(Cn2cncn2)c(F)c1 : 1.768%
* CCOc1cc(C)nc(N2CCN(C(=O)c3cnc[nH]3)CC2)n1 : 0.9253%
* Cc1nc(C)n(CC2CN(CC(=O)Nc3nccs3)CCO2)n1 (configuration not stated) : 8.258%
* COc1c(C2CCCN2CC(=O)Nc2cccnc2)c(C)nn1C (configuration not stated) : -18.54%
* O=C(NCCC(O)c1cccs1)c1ccc(Br)o1 (configuration not stated) : -0.8451%
* COCC(=O)NCCn1ccc2c(OC)cccc21 : -1.195%
* Cn1c(=O)[nH]c2cc(C(=O)OCCCn3ccccc3=O)ccc21 : -6.274%
* CCOCCn1nc(C)cc1C(=O)N1CC(C)(C)[C@@](C)(O)C1 : 11.19%
* COc1ccc(N2Cc3nc(N)ncc3C2=O)cc1 : 9.612%
* N#Cc1ccc(N2CCC3(CCC(=O)N3CCN3CCCC3)CC2)nc1.O=C(O)C(F)(F)F.O=C(O)C(F)(F)F : 16.92%

The first 3 entries again:

Result for O=C(NCCCOCC1CCCO1)c1cccnc1N1CCOCC1 (configuration not stated) was 19.99%.
Result for CN(C)[C@@H]1CCN(c2ncccn2)[C@H]1Cc1ccncc1.O=C(O)C(F)(F)F.O=C(O)C(F)(F)F was 15.8%.
Result for Cc1cnn(CCNCc2ccc(S(C)(=O)=O)cc2)c1 was -0.918%.